Data published in PubChem BioAssay AID493014 (National Center for Advancing Translational Sciences (NCATS), 2011).
In all, about 340,000 compounds went through this assay and about 170 (0.05%) were called active. The inconclusive results got no clear call from the source; some entries with a clear call stand among them for comparison. Calls come from the whole dose curve; as a rule, active = well fitted inhibition curve with a large enough effect in the signal ratio, with a control signal flat (not every such curve was filed as active); inconclusive = small, poorly fitted or top-dose-only effect, or effect the other way, or a change in a side signal; inactive = flat fitted curve, though single readings scatter; the % refers to the signal ratio. A potency beside an inconclusive call is a rough fit, not a confirmed value.

Test: qHTS Assay to Find Inhibitors of Chronic Active B-Cell Receptor Signaling;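 for activity change, negative = inhibition: plate controls were basal doxycycline-induced cells for no effect and cells given 10 µM MG132 for full effect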
Settings: ABC-DLBCL IkBa-CBG/CBR reporter, luminescence ratio (green luciferase fused to IkBa over red control in TMD8 lymphoma cells), 4 h; activity change, negative = inhibition: at 46.1 µM (top of the series)
Summary of the method: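 Compounds up to 46 uM were incubated four hours with TMD8 cells whose green CBG68 luciferase is fused to IkappaBalpha; red CBR luminescence normalised the signal, and concentration-effect curves were fitted to fusion, red and ratio data.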
Potency is the fitted concentration of half-maximal effect.

| Structure (SMILES) | activity change, negative = inhibition | Potency |
| --- | --- | --- |
| C=CCn1c(SCC(N)=O)nnc1-c1ccccc1O | inconclusive: 4.32% |  |
| CC1Cc2ccccc2N1S(=O)(=O)c1cccc(C(=O)NNC(=O)c2ccccc2F)c1 (stereo not given) | inconclusive: -0.91% |  |
| COCCN(C(=O)C(=O)NC1CCCC1)C(C(=O)NC1CCCC1)c1ccccc1F (stereo not given) | inconclusive: 25.9% |  |
| C=C(C)CN=C1SC(C(=O)Nc2sc3c(c2C(=O)OC)CCC3)C(N)=C1C(N)=O (stereo not given) | inconclusive: -2.88% |  |
| COc1ccc(CCNC(=O)CSc2ncnc3c2oc2ccccc23)cc1OC | inconclusive: 1.27% |  |
| COCCN(C(=O)CSc1ncn[nH]1)c1c(N)n(Cc2ccccc2)c(=O)[nH]c1=O | inconclusive: 0.45% |  |
| CCOC(=O)c1ccc(-c2ccc(CO)o2)cc1 | inconclusive: 1.99% |  |
| CC(C)OC(=O)NCCOC(=O)Nc1ccc(Cl)cc1 |  | inconclusive: 3.16 µM [rising, partial curve, poor fit] |
| O=C(NCCCN1CCOCC1)c1ccc2ccccc2c1 | inactive: 4.96% |  |
| CCc1cc2c(=O)c(-c3ccc4c(c3)OCCO4)coc2cc1OS(C)(=O)=O | inconclusive: 7.29% |  |
| CCOC(=O)N1CCN(c2nc(=S)n(-c3ccccc3)c(C)c2C(C)=O)CC1 | inactive: -1.07% |  |
| BrC(=C\c1ccccc1)/C=N/n1cnnc1 | inconclusive: 20.8% |  |
| COC(=O)CC1C(=O)NCCN1C(=O)Nc1cccc(Cl)c1 (stereo not given) | inconclusive: -1.35% |  |
| Cc1ccnc2c1ccc1cccnc12 |  | inconclusive: 18.4 µM [falling, partial curve, poor fit] |
| COc1ccc(NC(=O)CN(C)C(=O)/C=C/c2ccc(OCc3ccccc3)cc2)cc1 | inconclusive: 1.46% |  |
| CCN1CCN(C(=O)c2ccc(CS(=O)(=O)Cc3ccccc3F)o2)CC1 | inconclusive: -3.52% |  |
| O=c1c2ccccc2oc2cc(-c3ccc(CN4CCOCC4)cc3)ccc12 | inconclusive: 8.71% |  |
| CCCC(=O)Nc1ccc(-c2ccc(NC(=O)CCC)cc2)cc1 | inconclusive: -16.6% |  |
| C=C1c2cc(CC)ccc2NC(=O)N1c1ccc(C)cc1 |  | inconclusive: 2.59 µM [rising, partial curve] |
| O=C(c1cccc(-n2cnnn2)c1)N1CC=C(c2ccccc2)CC1 | inconclusive: -0.142% |  |
| O=C(/C=C/c1cccs1)Nc1scc(-c2ccccc2)c1C(=O)O |  | inconclusive: 22.4 µM [falling, partial curve] |
| CC[C@@]1(c2ccccc2OC)C(=O)N(C(=O)OC)N1C(=O)OC | inconclusive: 0.685% |  |
| O=C(Nc1nc2ccccc2s1)c1ccccc1[N+](=O)[O-] |  | inconclusive: 25.1 µM [falling, partial curve] |
| Cc1ccc2c(cnn2C(=O)CCC(=O)NCc2cccc(Cl)c2)c1 | inactive: -12.2% |  |
| Cc1cccc(NC(=O)C(CC(C)C)NC(=O)C2CCC(C)CC2)n1 (stereo not given) | inconclusive: 6.54% |  |
| CC(=C/c1ccccc1)/C=C1/SC(N2CCOCC2)=NC1=O |  | inconclusive: 14.1 µM [falling, partial curve, poor fit] |
| CN(C)c1ccc(-c2nnc(-c3cccs3)o2)cc1 |  | inconclusive: 2.82 µM [falling, partial curve, poor fit] |

Looked up one by one from above (3):

| Structure (SMILES) | activity change, negative = inhibition | Potency |
| --- | --- | --- |
| O=c1c2ccccc2oc2cc(-c3ccc(CN4CCOCC4)cc3)ccc12 | inconclusive: 8.71% |  |
| C=C1c2cc(CC)ccc2NC(=O)N1c1ccc(C)cc1 |  | inconclusive: 2.59 µM [rising, partial curve] |
| CCCC(=O)Nc1ccc(-c2ccc(NC(=O)CCC)cc2)cc1 | inconclusive: -16.6% |  |

A few values from the list:
`Cc1ccc2c(cnn2C(=O)CCC(=O)NCc2cccc(Cl)c2)c1` | activity change, negative = inhibition: inactive: -12.2%
`CCCC(=O)Nc1ccc(-c2ccc(NC(=O)CCC)cc2)cc1` | activity change, negative = inhibition: inconclusive: -16.6%

Later entries.

| Structure (SMILES) | activity change, negative = inhibition | Potency |
| --- | --- | --- |
| CCN(c1ccccc1)S(=O)(=O)c1cc(C(=O)Nc2cccc(Cl)c2)ccc1F | inconclusive: 25.3% |  |
| O=C(NC(=S)Nc1ccc(S(=O)(=O)N2CCCC2)cc1)c1cccs1 |  | inconclusive: 25.9 µM [falling, partial curve, poor fit] |
| CC(C)Oc1ccc(Br)cc1C(=O)N/N=C/c1c[nH]c2ccccc12 |  | inconclusive: 25.1 µM [falling, single point] |
| CCc1ccc2[nH]c(=O)c(C(c3nnnn3CC3CCCO3)N3CCCc4ccccc43)cc2c1 (stereo not given) | inactive: 0.291% |  |
| C/C(=N/NC(=O)c1cc(O)c(O)c(O)c1)c1ccc([N+](=O)[O-])cc1 |  | inconclusive: 35.5 µM [falling, single point] |
| Nc1c(C(=O)Nc2ccc3c(c2)OCCO3)nnn1Cc1ccccc1 | inconclusive: -2.96% |  |
| COc1ccccc1NC(=O)c1sc(NC(=O)c2ccco2)c(C#N)c1C | inconclusive: -4.09% |  |
| CCn1c(=NC(=O)CSCC(=O)Nc2nccs2)sc2ccccc21 |  | inconclusive: 20.6 µM [rising, partial curve, poor fit] |
| Clc1ccc(Cn2ncc3c(NCc4ccccc4)ncnc32)cc1 |  | inconclusive: 0.291 µM [falling, partial curve, poor fit] |
| OCC1(Cc2ccc(F)cc2F)CCCN(Cc2ccc(Cl)cc2)C1 (stereo not given) | inactive: 2.64% |  |
| Cc1nc2cc(NC(=O)NCc3ccc4c(c3)OCO4)ccc2o1 |  | inconclusive: 20.6 µM [falling, single point] |
| CCOC(=O)Cn1c(=NC(=O)c2cc(-c3cccs3)nc3ccccc23)sc2cc(S(N)(=O)=O)ccc21 | inconclusive: 14.4% |  |
| CCOC(=O)C(NC(=O)CC)(Nc1ccc(S(=O)(=O)Nc2ncccn2)cc1)C(F)(F)F (stereo not given) | inconclusive: -3.56% |  |
| O=C(c1cc(-c2ccc(O)cc2)on1)N1CCOCC1 |  | inconclusive: 15.8 µM [falling, partial curve] |
| Cc1ccc(C(=O)Nc2cccc(C(=O)NCc3ccco3)c2)cc1 | inconclusive: 4.14% |  |
| COC(=O)c1ccc(CNC(=O)Cn2cnc3c(NCc4ccccc4)ncnc32)cc1 | inconclusive: -0.774% |  |
| Cc1cccc(S(=O)(=O)c2cn(Cc3ccc(F)cc3)c3cc(N4CCOCC4)c(F)cc3c2=O)c1 | inactive: 11.8% |  |
| CCOc1ccc(S(=O)(=O)Nc2ccc(C(=O)NCc3ccncc3)cc2)cc1 | inconclusive: -1.18% |  |
| COc1ccc(C2=CC(c3ccco3)n3ncnc3N2)cc1 (stereo not given) | inconclusive: 1.8% |  |
| Cc1nc(NC(=O)c2ccccc2)sc1-c1csc(N)n1 |  | inconclusive: 20 µM [falling, partial curve] |
| O=C1CCC(C(=O)O)N1 (stereo not given) | inconclusive: -11.4% |  |
| COC(=O)CCCC(=O)N1CCC(n2nccc2NC(=O)CCOc2ccccc2)CC1 | inconclusive: 0.916% |  |
| COc1ccc(NC(=S)NCCSc2ccc(Cl)cc2)c(OC)c1 |  | inconclusive: 14.6 µM [falling, partial curve] |
| COc1ccc(-c2coc3cc(OC)cc(O)c3c2=O)cc1 | inconclusive: 11% |  |
| CC(=O)Nc1ccc(S(=O)(=O)N2CCN(c3ccc([N+](=O)[O-])cc3)CC2)cc1 | inactive: -0.019% |  |
| Cc1ccc2c(COC(=O)c3ccccc3Cl)cc(=O)oc2c1 | inconclusive: 6.88% |  |
| O=C(COC(=O)CNC(=O)c1ccco1)Nc1ccc(Cl)cn1 | inconclusive: 25.6% |  |

| Structure (SMILES) | activity change, negative = inhibition | Potency |
| --- | --- | --- |
| CC(C)[C@@H]1NC(=O)c2cc([N+](=O)[O-])cc(I)c2NCCC[C@@H](C(N)=O)NC(=O)[C@H](CO)NC1=O | inconclusive: -3.99% |  |
| COc1ccc(CNC(=O)C(c2ccc(C)o2)N(C(=O)c2csnn2)c2ccc(C(C)C)cc2)cc1 (stereo not given) |  | inconclusive: 29.1 µM [falling, single point] |
| O=C(Cn1nc([N+](=O)[O-])nc1Br)NC(c1ccccc1)c1ccccc1 | inconclusive: -3.13% |  |
| COc1ccc(NC(=O)C2CC(=O)OC23CCCCC3)cc1 (stereo not given) | inactive: -13.6% |  |
| CCC12CCCN3CCc4c(n(c5ccccc45)C(O)(C(=O)OC)C1)C32 (stereo not given) | inconclusive: -12.2% |  |
| O=C(NCCC1=CCCCC1)C1CCC(CNc2nc(=S)[nH]c3ccccc23)CC1 (stereo not given) | inactive: -4.94% |  |
| C=CCN(c1ccccc1)S(=O)(=O)c1cccc(C(=O)O)c1 | inconclusive: 26.6% |  |
| O=C(Nc1nnc(/C=C/c2ccccc2)s1)c1ccco1 | inconclusive: 7.08% |  |
| COc1ccccc1-n1cc(CN2CCN(C3CCCCC3)C(CCO)C2)cn1 (stereo not given) | inconclusive: 1.79% |  |
| COc1ccc(S(=O)(=O)N2CCOCC2)cc1NC(=O)COc1ccc(C)cc1 | inconclusive: 0.0287% |  |
| CN1CCN(C(=S)Nc2ccccc2Cl)CC1 | inactive: -1.25% |  |
| O=C(NCCNc1ccc2ccccc2c1)c1cccn2c(=O)c3sccc3nc12 | inconclusive: -0.0661% |  |
| Cc1ccc(NC(=O)Cn2cccc2)c(C)c1 |  | inconclusive: 1.3 µM [rising, full curve, poor fit] |
| Cc1ccc(/C=C/C(=O)N2CC(C)CC(C)C2)o1 (stereo not given) | inactive: -23.4% |  |
| COc1cc(/C=N/NC(=O)c2ccc3nc[nH]c3c2)ccc1O | inconclusive: -0.407% |  |
| Cc1cccc(NC(=O)c2cccnc2Cl)n1 | inconclusive: 10.4% |  |
| CCN(C[C@H]1N[C@@](CC)(C(=O)OC)[C@H]2C(=O)N(Cc3ccccc3)C(=O)[C@@H]12)S(=O)(=O)c1ccc(OC(F)(F)F)cc1 | inconclusive: 0.813% |  |
| Cc1nn(-c2cc(N3CCOCC3)ccc2[N+](=O)[O-])c(=O)c2ccccc12 | inconclusive: -9.69% |  |
| c1ccc2c(-c3csc(-c4ccncc4)n3)c[nH]c2c1 |  | inconclusive: 25.1 µM [cytotoxic, single point] |
| O=C1NCC(O)=C1C=Nc1ccccc1O |  | inconclusive: 35.5 µM [falling, single point] |
| C=CCN1C(=O)C2(OCCO2)c2cc(C)ccc21 | inconclusive: -2.93% |  |
| CS(=O)(=O)Nc1ccc(C(=O)Nc2ccc3c(c2)OCO3)cc1 | inconclusive: 0.167% |  |
| Cn1ccc2c(OCC(=O)NCc3ccc(F)cc3)cccc2c1=O | inactive: -0.726% |  |
| COc1cc([N+](=O)[O-])ccc1-c1ccc(C(=O)Nc2ccc(NC(C)=O)cc2)o1 | inactive: 5.09% |  |
| CC(=O)Nc1ccc(C2=CC(=O)CC(C)(C)C2)cc1 | inconclusive: 4.24% |  |
| Cc1cccc(/C=N/NC(=O)c2ccc(NC(=O)c3cccc(Cl)c3)cc2)n1 | inactive: 24.3% |  |
